Measured values as given in PubChem BioAssay AID1794845 (National Center for Advancing Translational Sciences (NCATS), 2023).
Among all 6,900 compounds or so, fewer than 10 were called active. The call rests on the fitted dose curve; in most records, active means well fitted curve in the direction sought with a large enough effect; inconclusive means small, poorly fitted or top-dose-only effect, or another doubt; inactive means no such curve, though single readings can be large or run the other way. The list shows a part of the results.

Protein sequences, listed by entry. Tags and fused reporters are not part of them. Lines headed by an entry give the natural chain unless they say otherwise; changes in a name come on top.
UniProt C7C422: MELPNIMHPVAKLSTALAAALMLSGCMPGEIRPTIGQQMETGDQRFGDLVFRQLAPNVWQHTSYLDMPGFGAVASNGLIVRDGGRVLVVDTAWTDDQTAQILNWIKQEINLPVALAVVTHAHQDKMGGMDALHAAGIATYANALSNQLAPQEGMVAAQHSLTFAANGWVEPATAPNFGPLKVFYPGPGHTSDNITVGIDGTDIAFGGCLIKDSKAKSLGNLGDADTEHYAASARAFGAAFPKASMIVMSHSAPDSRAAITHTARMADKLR

target: Metallo-beta-lactamase type 2 (Klebsiella pneumoniae) (UniProt C7C422); test: qHTS to identify inhibitors of the New Delhi Metallo-beta-lactamase (NDM): primary screen against the NCATS Gemini Collection; conditions: NDM-1 enzyme, meropenem hydrolysis, absorbance 300 nm; at 38.4 µM (top of the series) unless noted; further: % of control where 0% means no effect
Method in brief: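 Meropenem hydrolysis (50 uM final) by 2 nM NDM-1 read as 300 nm absorbance after 30 min, following >30 min compound–enzyme preincubation in HEPES pH 7.0 with 1 uM ZnSO4 and 0.01% Tween20.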

Activity % (negative = inhibition), inactive:
O=C(N1CCC2(CCNCC2)CC1)C1(S(=O)(=O)c2ccccc2)CC1 12.6%, CN(C)Cc1cc(C[C@@H]2C[C@H](NCc3ccc(F)cc3)C2(C)C)no1 -10.5% [at 57.5 µM], CC(=O)N1CCN(CC[C@H]2CN(C(=O)c3ccnc(Cl)c3)CC[C@H]2CC(=O)O)CC1 0.543%, CS(=O)(=O)N1CC2(CCCN(Cc3cccnc3)C2)Cc2ccccc21 (stereo not given) 1.09%, CC(=O)NCCNC(=O)C1CCCN(S(=O)(=O)c2ccccc2)CCC(=O)NCC1 (stereo not given) -4.87%, CNC(=O)C(C)N(C)C(=O)c1coc(CN2CCN(c3ccccc3F)CC2)n1 (stereo not given) 21.1%, COc1ccc(CN2CCCC3(CC(c4cccc(C(F)(F)F)c4)=NO3)C2)cc1 (stereo not given) 3.04%, CC1(C)C[C@H](NCC2CCCCC2)[C@@]2(CCC(=O)N3CCCC3)CC[C@](C)(O)C[C@@H]12 -2.59% [at 57.5 µM], CCc1c(C)nn(CC(=O)N2CC(C)(C)[C@@](C)(O)C2)c1C 1.08%, CC(C)c1nc(CNC(=O)c2ccc(NC3CCCCC3)nc2)no1 15.4%, COc1ccc(-c2nn(-c3ccccc3)cc2CN2CCC(F)CC2)c(F)c1 -7.22%, CC1CCC(NC(=O)c2cc3n(n2)CC(c2ccc(Cl)cc2)OC3)CC1 (stereo not given) -0.96%, COC1CCOC2(CCN(S(=O)(=O)c3cn(C)cn3)CC2)C1 (stereo not given) -7.49%, CC(C)N1C[C@@H](F)[C@@H](OCc2nc3ccc(F)cc3[nH]2)C1 9.58% [at 57.5 µM], O=C(Nc1ccccc1F)C1CN(C2CCCC2)C(=O)N1 (stereo not given) 1.82% [at 57.5 µM], O=C(NCc1ccccc1Cn1cccn1)c1ccc2cccc(F)c2n1 9.12%, O=C(NCc1nnc2ccccn12)[C@H]1CNC[C@H](C(=O)N2CCOCC2)C1 7.37%, COc1cccc(CNC(=O)CCNc2cnc3cnccn23)c1 9.82%, CC(C)n1nccc1S(=O)(=O)N[C@@H]1[C@@H](Cc2ccccc2)[C@H]2OCC[C@@H]12 0.185%, CN(C)Cc1nnc(C2CCN(Cc3cnc(-c4ccccn4)nc3)CC2)n1C 0.518%, Cc1ccoc1C(=O)N1CC[C@@H]2CN(S(C)(=O)=O)[C@@H]2C1 -0.468%, O=C(NCc1nc(-c2ncccn2)no1)C1CCCN(Cc2ccco2)C1 (stereo not given) -0.87%, O=C1CCN(C(=O)Nc2ccccc2F)CCCC(C(=O)NCc2ccncc2)CCN1 (stereo not given) 5.3%, COCC(NC(=O)c1ccc2nc(C3CCCCC3)oc2c1)c1ccnn1C (stereo not given) -0.0037%, c1cc(-c2ccnc3nc(C4CCC4)nn23)ccn1 25%, O=C(Nc1ccc(F)cc1)c1cc2cccnn2n1 27.8% [at 57.5 µM], O=C(O)CC[C@@H]1CN(C(=O)c2ccc(CO)o2)CC[C@@H]1N1CCOCC1 86.3%, COCCNC(=O)[C@H]1C[C@H](Oc2cccnc2)CN1S(=O)(=O)c1cn(C)cn1 6.1%, CN(CC1CCOC1)C(=O)c1cccs1 (stereo not given) -4.04%, Cc1ccc(CNC(=O)N2CCCC(CN3CCC(C)CC3)CC2)cc1 (stereo not given) -0.299%, CCCn1cc(C(=O)NCC2COc3cc(OC)ccc3C2)c(C)n1 (stereo not given) 0.463%, COc1ccc(Cl)cc1NC(=O)C1CN(S(C)(=O)=O)CC12CCCCC2 (stereo not given) 35.1%, CNC(=O)[C@@H]1C[C@@H](n2cc(CNC(=O)Nc3ccc(Cl)cc3C)nn2)CN1 19.6%, O=C(c1cc2ccccc2[nH]1)N1CCCC2(C1)NC(=O)N(Cc1ccccc1)C2=O (stereo not given) 3.64%, CNC(=O)c1cc(C2CC2)nc2c1c(C1CCCN([S+](=O)([O-])c3c(C)noc3C)C1)nn2C (stereo not given) 9.28%, O=C(C[C@@H]1C[C@H]2O[C@H](CNC3CCC(F)(F)CC3)[C@@H](O)[C@H]2O1)N1CCC(F)(F)C1 -3.07% [at 57.5 µM], O=C(N1CCC(Cc2nc(-c3ccc(F)cc3)no2)CC1)C1(c2ccccc2)CC1 6.17%, Cc1cc(C(=O)N(C)CC2(C)CCOCC2)nn1C 1.6%, CC(C)C(=O)N1CCC2(CC1)OC(=O)N(Cc1ccccc1)C2(C)c1cccnc1 (stereo not given) -5.13% [at 57.5 µM], COCC1CN(C(C)=O)CC12CCN(C(=O)C1CC=CC1)CC2 (stereo not given) 11.1%, Cc1nc(C)c(C(=O)N2CCC(N3C(=O)C4(CCCC4)C3c3scnc3C)CC2)s1 (stereo not given) 2.71%, Cc1cc(CN2C[C@@H](CO)[C@H](NC(=O)C3CCC3)C2)n(C)n1 -0.0151%, O=C(c1ccc(Cl)cc1)N1CCN(Cc2ccccc2-c2cccnc2)CC1 11.2%, O=C(NCC1CCN(Cc2ccccn2)C1)Nc1ccc(F)cc1 (stereo not given) 18.4%, N#Cc1ccc(O[C@@H]2COCC[C@H]2NC(=O)Cn2nnnc2N)cc1 1.45%, CN(Cc1cccn1C)C(=O)Nc1ccc(Cl)cc1 1.82% [at 57.5 µM], Nc1nc(C2CC(O)C2)cc(N2CC(N3CCOCC3)C2)n1 (stereo not given) -0.153%, COCc1nn(CC(=O)NC(C)Cc2cc(C)[nH]n2)c(=O)n1-c1ccccc1 (stereo not given) 12.3%, CNC(=O)[C@@H]1C[C@@H](n2cc(CNC(=O)Cc3ccc(F)cc3)nn2)CN1 11%, CC(C)n1cc(C(=O)NCc2cccnc2Oc2ccc(F)cc2F)cn1 0.388%, Cc1noc2c(N3CCOCC3)cc(-c3cccs3)nc12 27.7% [at 57.5 µM], CNC(=O)c1cccn2cncc12 9.62% [at 77.1 µM], O=C(NC[C@H]1COCc2nc3cc(F)ccc3n21)C1CC1 -1.38% [at 77.1 µM], Cn1nccc1CCC(=O)N1CCN(C(=O)C2CCC2)[C@@H]2CS(=O)(=O)C[C@@H]21 -1.48%, O=C(c1ccccc1)N1Cc2[nH]cnc2C[C@H]1c1nc(-c2ccc(Cl)cc2)no1 -11.8% [at 57.5 µM], Cc1cc(C(=O)N2CC(F)(F)C[C@H]2c2nnc(C)o2)no1 -4.41%, CC(=O)N1CCN(C(=O)c2ccc3oc(-c4ccncc4Cl)nc3c2)CC1 42.2% [at 57.5 µM], COc1ccccc1C(=O)N1CCC(C(=O)N2CCC(c3nc4ncccc4[nH]3)C2)CC1 (stereo not given) 11.3%, CN1CCOC[C@H]2CCN(C(=O)c3cccc4[nH]ccc34)C[C@H]21 3.15%, CC(C)(C)C(=O)NCCNC(=O)c1cccc(-c2ccc(C(F)(F)F)cc2)c1 -3.97%, COCc1nnc2n1CCC(NC(=O)CCc1c(C)noc1C)CC2 (stereo not given) 29.8%, OCCC#Cc1ccc(CN2CCC(CO)(Cc3ccccc3Cl)CC2)cc1 9.89%, Cn1nccc1CN1CC2(C1)C(=O)Nc1ccccc12 -0.928% [at 57.5 µM], O=C(N1CCCC1)N1CCCC(c2nnc3n2CCNC3)C1 (stereo not given) 32.8%, Cc1[nH]nc(CCC(=O)N2CC[C@@H](NC(=O)c3cnccn3)[C@H](O)C2)c1C 8.34%, CN1C(=O)CCCCC1C(=O)NCCN1CCCCC1 (stereo not given) 5%, O=C(c1ccoc1)N1CCN(c2cc(C3CC3)ncn2)CC(O)C1 (stereo not given) 18.2%, CN(C)CCOCC1(C)COc2ccc(C(=O)Nc3ccc4[nH]ccc4c3)cc2N1 (stereo not given) 10.4% [at 57.5 µM], O=C(N[C@H]1CO[C@H]2[C@@H]1OC[C@@H]2Nc1nccc(C2CCCC2)n1)c1ccco1 -0.239% [at 57.5 µM], CCNC(=O)N1CCC(CCOC)(NS(=O)(=O)c2cccc3cccnc23)CC1 3.13%, O=C(c1ccccc1OC1CN(Cc2cccc(C(F)(F)F)c2)C1)N1CCOCC1 -5.65%, O=C([C@@H]1C[C@H](F)CN1C(=O)c1cccs1)N1CCOCC1 6.45%, COc1ccc(OCC2CN(c3ccc(OC)cc3)C(=O)c3ccc(C)nc3O2)cc1 (stereo not given) 34.9%, CNCC(=O)N1CCC(Cc2cccc(C(N)=O)c2)C1 (stereo not given) 11.1%, O=C(NC1CCCc2ccccc21)C1CN(C2CCCCC2)C(=O)N1 (stereo not given) 6.07% [at 57.5 µM], Cc1cn2nc(C(=O)NCC(C)c3ccccc3)cc2c(N2CCSCC2)n1 (stereo not given) 5.29%, C[C@@H]1CN(C(=O)CCSCc2ccccc2)CC[C@@]1(O)C1CCOCC1 18.6%, COC(=O)CNC(=O)c1cc(-c2cnccc2Cl)c2cccn2n1 14.6%, O=[S+]([O-])(Nc1ccccc1)c1ccc2c(c1)OCCN(Cc1cncnc1)C2 37% [at 57.5 µM], O=C(c1ccc(Cl)cc1)N1CCC(N2CCOC2=O)CC1 -0.15%, CCN(CC)C(=O)C[C@@H]1CCNC[C@@H]1Cc1cc(-c2ccccn2)on1 3.85% [at 57.5 µM], CCCc1nnc(NC(=O)C2CC(=O)N(c3n[nH]c4cc(Br)ccc34)C2)s1 (stereo not given) 0.258%, CCN(CCn1cccn1)Cc1ccccc1OCC(O)CN1CCCCC1 (stereo not given) -6.03%, COC1CCOC2(CCN(C(=O)Cc3ccccc3)CC2)C1 (stereo not given) -13.9%, Cc1ccc(CNC(=O)N2CCCCCNC(=O)[C@@H]3CCC[C@@H]32)cc1 25.1%
